# Experimental data reported in the supplement of paper PMC12819154, “High-throughput peptide-centric local stability assay extends protein–ligand identification to membrane proteins, tissues and bacteria” (Nature Structural & Molecular Biology, 2025).
# Chains of the proteins cited; added tags and fusions are not shown. Lines headed by an entry give the natural chain unless they say otherwise; changes in a name come on top.
# UniProt O15155: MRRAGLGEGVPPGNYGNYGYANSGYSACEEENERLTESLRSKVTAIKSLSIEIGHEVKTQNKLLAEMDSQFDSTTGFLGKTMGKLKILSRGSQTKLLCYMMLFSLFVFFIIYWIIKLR
# UniProt D6RIA3: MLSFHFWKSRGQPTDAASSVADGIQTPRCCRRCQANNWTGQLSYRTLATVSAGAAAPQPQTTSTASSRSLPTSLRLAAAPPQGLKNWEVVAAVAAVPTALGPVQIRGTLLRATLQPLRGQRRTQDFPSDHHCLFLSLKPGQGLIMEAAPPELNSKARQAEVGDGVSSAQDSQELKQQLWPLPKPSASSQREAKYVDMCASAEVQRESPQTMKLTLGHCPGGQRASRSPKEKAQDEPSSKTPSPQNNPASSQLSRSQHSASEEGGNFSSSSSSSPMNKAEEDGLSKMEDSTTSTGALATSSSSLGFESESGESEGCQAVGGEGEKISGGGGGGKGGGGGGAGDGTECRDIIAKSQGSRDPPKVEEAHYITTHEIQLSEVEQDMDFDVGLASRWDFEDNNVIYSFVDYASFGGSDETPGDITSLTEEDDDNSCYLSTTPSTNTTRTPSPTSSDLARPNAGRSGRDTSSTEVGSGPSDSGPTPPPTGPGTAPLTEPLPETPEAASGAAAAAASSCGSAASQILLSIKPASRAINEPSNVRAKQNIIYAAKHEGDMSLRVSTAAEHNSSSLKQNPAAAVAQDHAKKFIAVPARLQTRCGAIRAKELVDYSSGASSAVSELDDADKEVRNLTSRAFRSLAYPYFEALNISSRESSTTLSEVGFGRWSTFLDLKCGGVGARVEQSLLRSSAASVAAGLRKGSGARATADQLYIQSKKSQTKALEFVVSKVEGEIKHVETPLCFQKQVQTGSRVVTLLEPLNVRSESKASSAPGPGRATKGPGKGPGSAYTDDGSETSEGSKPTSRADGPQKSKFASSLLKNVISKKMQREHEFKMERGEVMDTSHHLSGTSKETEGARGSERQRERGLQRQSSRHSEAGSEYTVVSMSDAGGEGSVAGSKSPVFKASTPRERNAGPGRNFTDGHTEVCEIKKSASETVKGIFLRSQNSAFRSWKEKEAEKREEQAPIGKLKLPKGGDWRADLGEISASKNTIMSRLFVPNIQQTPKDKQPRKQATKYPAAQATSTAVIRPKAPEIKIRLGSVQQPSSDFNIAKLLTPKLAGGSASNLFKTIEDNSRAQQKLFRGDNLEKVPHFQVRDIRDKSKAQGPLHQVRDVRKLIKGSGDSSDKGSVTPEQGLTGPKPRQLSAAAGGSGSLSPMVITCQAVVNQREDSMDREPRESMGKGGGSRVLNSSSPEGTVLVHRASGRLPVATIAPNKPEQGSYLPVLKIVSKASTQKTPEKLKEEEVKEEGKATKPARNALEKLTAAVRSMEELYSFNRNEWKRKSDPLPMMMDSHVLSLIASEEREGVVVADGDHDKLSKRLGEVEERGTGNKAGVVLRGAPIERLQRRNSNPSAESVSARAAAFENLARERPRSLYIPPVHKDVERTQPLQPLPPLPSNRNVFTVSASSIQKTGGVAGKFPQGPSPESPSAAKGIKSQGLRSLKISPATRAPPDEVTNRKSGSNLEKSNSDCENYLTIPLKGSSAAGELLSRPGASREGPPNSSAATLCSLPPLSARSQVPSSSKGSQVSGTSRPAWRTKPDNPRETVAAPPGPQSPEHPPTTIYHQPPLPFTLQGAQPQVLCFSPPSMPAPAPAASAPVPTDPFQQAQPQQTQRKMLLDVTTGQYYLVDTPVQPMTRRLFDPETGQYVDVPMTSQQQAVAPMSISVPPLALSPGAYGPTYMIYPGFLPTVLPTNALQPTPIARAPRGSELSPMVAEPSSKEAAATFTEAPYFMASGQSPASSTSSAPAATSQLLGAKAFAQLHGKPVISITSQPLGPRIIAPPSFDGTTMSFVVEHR
# UniProt O14653: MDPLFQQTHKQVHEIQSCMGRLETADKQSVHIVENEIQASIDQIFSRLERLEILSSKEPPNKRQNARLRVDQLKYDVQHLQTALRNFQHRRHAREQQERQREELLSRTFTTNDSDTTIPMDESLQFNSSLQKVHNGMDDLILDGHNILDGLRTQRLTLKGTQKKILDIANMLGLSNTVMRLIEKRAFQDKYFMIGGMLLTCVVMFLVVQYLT
# UniProt O00400: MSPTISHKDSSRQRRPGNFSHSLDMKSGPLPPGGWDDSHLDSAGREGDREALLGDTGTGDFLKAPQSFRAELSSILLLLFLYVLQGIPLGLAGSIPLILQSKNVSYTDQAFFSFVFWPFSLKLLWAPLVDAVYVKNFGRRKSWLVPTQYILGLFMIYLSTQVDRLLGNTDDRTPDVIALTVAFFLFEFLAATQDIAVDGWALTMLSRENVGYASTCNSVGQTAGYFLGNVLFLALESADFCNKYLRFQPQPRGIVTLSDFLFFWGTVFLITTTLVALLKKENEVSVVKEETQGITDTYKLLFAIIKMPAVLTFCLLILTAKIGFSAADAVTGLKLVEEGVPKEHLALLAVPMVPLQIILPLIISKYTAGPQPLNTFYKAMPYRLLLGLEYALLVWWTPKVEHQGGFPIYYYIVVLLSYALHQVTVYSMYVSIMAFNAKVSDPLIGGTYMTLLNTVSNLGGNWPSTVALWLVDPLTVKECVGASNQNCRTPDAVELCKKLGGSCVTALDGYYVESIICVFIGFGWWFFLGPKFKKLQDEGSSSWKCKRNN
# UniProt O00571: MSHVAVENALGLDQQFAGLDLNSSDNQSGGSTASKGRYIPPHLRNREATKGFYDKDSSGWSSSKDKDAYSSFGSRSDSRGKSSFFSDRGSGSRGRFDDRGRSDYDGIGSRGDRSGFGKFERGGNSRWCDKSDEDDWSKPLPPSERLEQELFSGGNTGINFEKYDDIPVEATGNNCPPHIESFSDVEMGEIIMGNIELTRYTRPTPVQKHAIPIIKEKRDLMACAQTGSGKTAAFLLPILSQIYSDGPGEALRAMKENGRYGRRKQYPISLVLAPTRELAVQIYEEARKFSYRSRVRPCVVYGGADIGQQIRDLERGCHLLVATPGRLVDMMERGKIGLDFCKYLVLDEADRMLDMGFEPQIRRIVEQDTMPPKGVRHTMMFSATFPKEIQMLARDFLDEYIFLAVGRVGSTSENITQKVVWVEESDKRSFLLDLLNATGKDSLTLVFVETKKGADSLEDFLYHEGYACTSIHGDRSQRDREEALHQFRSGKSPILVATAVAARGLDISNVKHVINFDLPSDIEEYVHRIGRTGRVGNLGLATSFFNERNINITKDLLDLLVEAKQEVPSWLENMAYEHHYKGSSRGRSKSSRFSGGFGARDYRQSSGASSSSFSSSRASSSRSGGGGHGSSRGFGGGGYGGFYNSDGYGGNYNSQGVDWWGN
# UniProt B2RPK0: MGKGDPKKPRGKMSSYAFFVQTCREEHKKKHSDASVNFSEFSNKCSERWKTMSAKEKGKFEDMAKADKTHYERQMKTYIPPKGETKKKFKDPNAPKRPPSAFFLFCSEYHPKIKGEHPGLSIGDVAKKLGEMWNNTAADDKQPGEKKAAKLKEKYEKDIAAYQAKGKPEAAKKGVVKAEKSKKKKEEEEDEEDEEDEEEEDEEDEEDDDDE
# UniProt O15315: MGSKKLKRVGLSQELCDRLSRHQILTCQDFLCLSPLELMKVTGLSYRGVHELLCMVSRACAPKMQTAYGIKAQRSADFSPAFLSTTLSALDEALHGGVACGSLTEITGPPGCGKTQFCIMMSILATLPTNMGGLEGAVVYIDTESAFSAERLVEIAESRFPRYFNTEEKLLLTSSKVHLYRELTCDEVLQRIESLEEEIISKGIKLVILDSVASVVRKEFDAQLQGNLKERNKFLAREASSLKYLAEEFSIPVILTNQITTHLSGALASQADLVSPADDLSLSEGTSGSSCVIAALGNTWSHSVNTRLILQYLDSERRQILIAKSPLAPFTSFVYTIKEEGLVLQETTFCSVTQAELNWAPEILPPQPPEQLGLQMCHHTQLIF
# UniProt O14929: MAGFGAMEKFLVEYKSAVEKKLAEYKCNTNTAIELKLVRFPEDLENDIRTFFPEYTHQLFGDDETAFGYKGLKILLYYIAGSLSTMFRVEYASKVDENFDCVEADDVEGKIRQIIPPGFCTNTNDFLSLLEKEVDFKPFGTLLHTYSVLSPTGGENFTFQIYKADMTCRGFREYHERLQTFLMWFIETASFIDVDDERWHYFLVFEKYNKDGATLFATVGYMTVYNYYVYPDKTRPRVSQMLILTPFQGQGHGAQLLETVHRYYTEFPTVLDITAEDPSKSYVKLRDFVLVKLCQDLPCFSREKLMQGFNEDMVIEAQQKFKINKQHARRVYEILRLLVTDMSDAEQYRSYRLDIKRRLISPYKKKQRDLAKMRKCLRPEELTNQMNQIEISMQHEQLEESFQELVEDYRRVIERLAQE
# UniProt O14978: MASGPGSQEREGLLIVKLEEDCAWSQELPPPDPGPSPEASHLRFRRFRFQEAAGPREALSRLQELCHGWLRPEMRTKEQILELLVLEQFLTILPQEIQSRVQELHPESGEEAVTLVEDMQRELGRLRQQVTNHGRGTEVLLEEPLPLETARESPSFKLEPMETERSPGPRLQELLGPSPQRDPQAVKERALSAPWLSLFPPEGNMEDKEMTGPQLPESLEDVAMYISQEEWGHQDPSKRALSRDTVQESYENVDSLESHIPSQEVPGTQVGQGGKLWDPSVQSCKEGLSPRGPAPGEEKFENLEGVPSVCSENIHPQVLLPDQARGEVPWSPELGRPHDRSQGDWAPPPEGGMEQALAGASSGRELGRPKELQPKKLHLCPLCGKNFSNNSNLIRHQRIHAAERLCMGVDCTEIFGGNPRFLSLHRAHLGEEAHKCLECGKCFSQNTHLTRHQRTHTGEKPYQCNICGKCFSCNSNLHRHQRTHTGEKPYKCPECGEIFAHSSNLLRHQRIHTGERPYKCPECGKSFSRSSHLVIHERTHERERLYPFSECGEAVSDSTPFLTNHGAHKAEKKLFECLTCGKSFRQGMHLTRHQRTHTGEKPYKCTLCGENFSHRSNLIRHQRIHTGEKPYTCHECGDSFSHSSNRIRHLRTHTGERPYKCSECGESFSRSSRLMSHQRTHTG
# UniProt O15056: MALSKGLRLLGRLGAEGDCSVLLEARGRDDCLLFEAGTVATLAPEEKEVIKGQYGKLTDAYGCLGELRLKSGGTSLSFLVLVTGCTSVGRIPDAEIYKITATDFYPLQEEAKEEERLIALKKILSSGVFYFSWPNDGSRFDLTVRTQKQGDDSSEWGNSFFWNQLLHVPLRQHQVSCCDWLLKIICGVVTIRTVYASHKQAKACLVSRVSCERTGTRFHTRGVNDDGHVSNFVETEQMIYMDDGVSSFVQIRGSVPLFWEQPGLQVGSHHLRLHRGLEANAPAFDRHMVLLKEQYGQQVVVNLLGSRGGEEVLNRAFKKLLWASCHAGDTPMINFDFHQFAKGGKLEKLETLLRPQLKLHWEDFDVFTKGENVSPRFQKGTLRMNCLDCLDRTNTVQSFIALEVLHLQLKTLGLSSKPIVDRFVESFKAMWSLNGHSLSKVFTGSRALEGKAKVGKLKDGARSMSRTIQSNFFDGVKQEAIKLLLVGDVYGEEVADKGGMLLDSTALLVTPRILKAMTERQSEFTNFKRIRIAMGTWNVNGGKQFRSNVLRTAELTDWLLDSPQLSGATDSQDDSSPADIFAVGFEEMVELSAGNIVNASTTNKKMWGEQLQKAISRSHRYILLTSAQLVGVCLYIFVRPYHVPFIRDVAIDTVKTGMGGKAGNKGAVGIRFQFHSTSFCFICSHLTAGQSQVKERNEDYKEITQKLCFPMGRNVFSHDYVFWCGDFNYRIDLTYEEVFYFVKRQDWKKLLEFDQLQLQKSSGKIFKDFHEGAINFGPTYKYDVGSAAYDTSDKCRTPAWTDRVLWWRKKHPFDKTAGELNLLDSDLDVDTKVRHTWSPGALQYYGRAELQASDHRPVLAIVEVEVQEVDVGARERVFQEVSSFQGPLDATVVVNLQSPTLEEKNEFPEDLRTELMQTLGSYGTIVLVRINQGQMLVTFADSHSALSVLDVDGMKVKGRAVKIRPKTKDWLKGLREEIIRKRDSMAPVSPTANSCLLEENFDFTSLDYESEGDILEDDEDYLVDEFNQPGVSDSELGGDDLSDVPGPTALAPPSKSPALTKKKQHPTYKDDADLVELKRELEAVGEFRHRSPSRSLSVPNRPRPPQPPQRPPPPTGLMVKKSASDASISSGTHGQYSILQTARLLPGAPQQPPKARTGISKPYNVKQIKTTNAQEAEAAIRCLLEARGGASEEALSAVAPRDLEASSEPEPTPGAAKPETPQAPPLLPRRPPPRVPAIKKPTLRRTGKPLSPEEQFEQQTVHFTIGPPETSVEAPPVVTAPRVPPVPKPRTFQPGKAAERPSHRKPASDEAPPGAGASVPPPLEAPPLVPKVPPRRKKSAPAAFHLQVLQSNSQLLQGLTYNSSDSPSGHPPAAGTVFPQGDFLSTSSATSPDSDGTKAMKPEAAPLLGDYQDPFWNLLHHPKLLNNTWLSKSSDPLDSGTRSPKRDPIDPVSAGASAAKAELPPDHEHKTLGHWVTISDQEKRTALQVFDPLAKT
# This is one part of the list. Most values lie at the level of the controls, where differences are scatter.
# Compound: Cc1nc(Nc2ncc(C(=O)Nc3c(C)cccc3Cl)s2)cc(N2CCN(CCO)CC2)n1 [dasatinib]
# Assay: log2 fold change of tryptic peptide abundance, ligand vs vehicle (limited proteolysis) (log2 ratio); higher = more trypsin-susceptible (destabilized)
# Conditions: ligand concentration: 5 uM; sample: K562 cleared lysate
row,Target,log2 fold change
1,"BET1 (peptide sequence: SLSIEIGHEVK, peptide start residue: 48) (UniProt O15155)",0.0884
2,"ARPC5 (peptide sequence: QGNMTAALQAALK, peptide start residue: 48) (UniProt O15511)",0.31
3,"POLR3A (peptide sequence: NICHHCGAFNGTVK, peptide start residue: 154) (UniProt O14802)",-0.17
4,"GTPBP1 (peptide sequence: HKHEIESGR, peptide start residue: 199) (UniProt O00178)",-0.209
5,"UniProt O14543 (peptide sequence: SEYQLVVNAVR, peptide start residue: 29)",0.0796
6,"RGL2 (peptide sequence: TSGTDVSFMSAFLATHR, peptide start residue: 109) (UniProt O15211)",0.554
7,"AIP (peptide sequence: HVVLYPLVAK, peptide start residue: 94) (UniProt O00170)",-0.162
8,"UniProt O15063 (peptide sequence: NIFIAGCSEEK, peptide start residue: 567)",-0.213
9,"UniProt D6RIA3 (peptide sequence: TGGVAGK, peptide start residue: 1408)",0.145
10,"GOSR2 (peptide sequence: MDPLFQQTHK, peptide start residue: 1) (UniProt O14653)",0.0612
11,"PES1 (peptide sequence: KLQLSLADFRR, peptide start residue: 26) (UniProt O00541)",-0.396
12,"UniProt O14607 (peptide sequence: DKLNPPTPSIYLENKR, peptide start residue: 934)",-0.197
13,"EIF3F (peptide sequence: IGVDLIMK, peptide start residue: 247) (UniProt O00303)",0.0366
14,"SUPT5H (peptide sequence: TRHLVLAGGSKPR, peptide start residue: 640) (UniProt O00267)",-0.825
15,"UniProt A8MQ14 (peptide sequence: MYTDERPHECQESVK, peptide start residue: 246)",-0.159
16,"UniProt O00148 (peptide sequence: FSKYMPSVK, peptide start residue: 135)",0.282
17,"SLC33A1 (peptide sequence: RPGNFSHSLDMK, peptide start residue: 15) (UniProt O00400)",-0.0303
18,"UniProt O00370 (peptide sequence: AIRQEKEIK, peptide start residue: 678)",-0.0869
19,"DDX3X (peptide sequence: EATKGFYDKDSSGWSSSK, peptide start residue: 47) (UniProt O00571)",-0.987

row,Target,log2 fold change
1,"KIF3C (peptide sequence: VGKLNLVDLAGSER, peptide start residue: 238) (UniProt O14782)",0.153
2,"FHAD1 (peptide sequence: ETLEEERK, peptide start residue: 703) (UniProt B1AJZ9)",0.0353
3,"BIN1 (peptide sequence: VNHEPEPAGGATPGATLPK, peptide start residue: 312) (UniProt O00499)",-0.14
4,"UniProt B2RPK0 (peptide sequence: GEHPGLSIGDVAKK, peptide start residue: 115)",0.0668
5,"UniProt B7ZLF3 (peptide sequence: IHSGEKPHQCAQCGR, peptide start residue: 117)",1.01
6,"UniProt E9PRG8 (peptide sequence: EKTAMEVEAPSKPAR, peptide start residue: 82)",0.14
7,"UniProt O00567 (peptide sequence: VREWYGYHFPELVK, peptide start residue: 189)",0.136
8,"UniProt O14979 (peptide sequence: DLTEYLSR, peptide start residue: 163)",0.0641
9,"PPP1R12A (peptide sequence: ESETSREDEYK, peptide start residue: 745) (UniProt O14974)",0.334
10,"IMPA2 (peptide sequence: QELEFGVIYHCTEER, peptide start residue: 126) (UniProt O14732)",-0.481
11,"NFKBIE (peptide sequence: GLMGISSTLCK, peptide start residue: 448) (UniProt O00221)",-0.382
12,"SEC16A (peptide sequence: RSSLSSHSHQSQIYR, peptide start residue: 1367) (UniProt O15027)",1.29
13,"UniProt O15315 (peptide sequence: RVGLSQELCDR, peptide start residue: 8)",-0.755
14,"UniProt B3KNS4 (peptide sequence: RDPWYSTVGLLPPVR, peptide start residue: 20)",0.0697
15,"MYO9A (peptide sequence: ETKPEVGLVNIK, peptide start residue: 1168) (UniProt B2RTY4)",-0.48
16,"HAT1 (peptide sequence: INKQHAR, peptide start residue: 323) (UniProt O14929)",-0.286
17,"UniProt O14978 (peptide sequence: CSECGESFSR, peptide start residue: 661)",0.854
18,"SYNJ2 (peptide sequence: GGEEVLNR, peptide start residue: 308) (UniProt O15056)",-0.145

# Taken from the results shown for reference:
row,Target,log2 fold change
14,"UniProt B3KNS4 (peptide sequence: RDPWYSTVGLLPPVR, peptide start residue: 20)",0.0697
15,"MYO9A (peptide sequence: ETKPEVGLVNIK, peptide start residue: 1168) (UniProt B2RTY4)",-0.48
